Results as given in the supplement of paper PMC10849652.
The other results are listed elsewhere or left out. Residues, ends and D or L forms follow the SMILES beside them. *: point of attachment. Cbz = O=C(OCc1ccccc1)*

Amino acid sequences for entries named in this document (tags omitted). A change or cut given only in a name is not applied to a line headed by its entry.
UniProt O14734: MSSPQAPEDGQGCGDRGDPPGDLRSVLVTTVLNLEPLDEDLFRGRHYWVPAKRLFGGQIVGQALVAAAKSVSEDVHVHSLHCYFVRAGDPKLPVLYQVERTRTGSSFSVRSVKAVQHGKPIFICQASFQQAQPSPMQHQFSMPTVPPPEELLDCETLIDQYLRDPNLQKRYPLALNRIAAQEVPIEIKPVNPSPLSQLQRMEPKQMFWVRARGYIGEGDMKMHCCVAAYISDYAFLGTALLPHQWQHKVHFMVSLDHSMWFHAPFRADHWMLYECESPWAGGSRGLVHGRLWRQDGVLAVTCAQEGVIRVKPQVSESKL
UniProt P53396: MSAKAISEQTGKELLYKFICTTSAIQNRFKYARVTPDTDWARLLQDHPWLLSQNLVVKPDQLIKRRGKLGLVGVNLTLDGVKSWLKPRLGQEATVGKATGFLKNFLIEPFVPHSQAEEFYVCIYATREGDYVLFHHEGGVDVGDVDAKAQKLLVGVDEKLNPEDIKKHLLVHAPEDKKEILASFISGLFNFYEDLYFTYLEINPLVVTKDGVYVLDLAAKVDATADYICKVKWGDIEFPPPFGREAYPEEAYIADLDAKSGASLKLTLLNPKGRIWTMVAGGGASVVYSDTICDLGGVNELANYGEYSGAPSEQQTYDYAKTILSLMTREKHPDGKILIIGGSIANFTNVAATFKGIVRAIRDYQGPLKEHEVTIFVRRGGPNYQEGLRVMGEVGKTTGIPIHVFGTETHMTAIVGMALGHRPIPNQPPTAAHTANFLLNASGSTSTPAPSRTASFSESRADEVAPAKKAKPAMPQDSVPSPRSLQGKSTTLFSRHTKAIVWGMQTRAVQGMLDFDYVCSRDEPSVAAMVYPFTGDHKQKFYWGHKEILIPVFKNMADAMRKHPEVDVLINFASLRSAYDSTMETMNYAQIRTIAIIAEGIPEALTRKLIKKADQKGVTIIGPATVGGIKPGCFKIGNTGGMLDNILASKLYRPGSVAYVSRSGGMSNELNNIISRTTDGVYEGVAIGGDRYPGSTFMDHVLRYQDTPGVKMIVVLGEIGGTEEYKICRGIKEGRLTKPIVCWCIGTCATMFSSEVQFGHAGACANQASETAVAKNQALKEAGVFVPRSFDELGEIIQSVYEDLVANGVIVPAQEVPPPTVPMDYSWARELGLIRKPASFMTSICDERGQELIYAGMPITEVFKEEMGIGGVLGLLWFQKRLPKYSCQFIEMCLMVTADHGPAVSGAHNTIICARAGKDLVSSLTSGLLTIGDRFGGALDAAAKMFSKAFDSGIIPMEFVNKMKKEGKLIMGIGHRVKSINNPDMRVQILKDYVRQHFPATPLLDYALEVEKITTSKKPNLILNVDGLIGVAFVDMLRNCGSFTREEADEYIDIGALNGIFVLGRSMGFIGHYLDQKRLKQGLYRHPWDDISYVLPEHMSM
UniProt P33121: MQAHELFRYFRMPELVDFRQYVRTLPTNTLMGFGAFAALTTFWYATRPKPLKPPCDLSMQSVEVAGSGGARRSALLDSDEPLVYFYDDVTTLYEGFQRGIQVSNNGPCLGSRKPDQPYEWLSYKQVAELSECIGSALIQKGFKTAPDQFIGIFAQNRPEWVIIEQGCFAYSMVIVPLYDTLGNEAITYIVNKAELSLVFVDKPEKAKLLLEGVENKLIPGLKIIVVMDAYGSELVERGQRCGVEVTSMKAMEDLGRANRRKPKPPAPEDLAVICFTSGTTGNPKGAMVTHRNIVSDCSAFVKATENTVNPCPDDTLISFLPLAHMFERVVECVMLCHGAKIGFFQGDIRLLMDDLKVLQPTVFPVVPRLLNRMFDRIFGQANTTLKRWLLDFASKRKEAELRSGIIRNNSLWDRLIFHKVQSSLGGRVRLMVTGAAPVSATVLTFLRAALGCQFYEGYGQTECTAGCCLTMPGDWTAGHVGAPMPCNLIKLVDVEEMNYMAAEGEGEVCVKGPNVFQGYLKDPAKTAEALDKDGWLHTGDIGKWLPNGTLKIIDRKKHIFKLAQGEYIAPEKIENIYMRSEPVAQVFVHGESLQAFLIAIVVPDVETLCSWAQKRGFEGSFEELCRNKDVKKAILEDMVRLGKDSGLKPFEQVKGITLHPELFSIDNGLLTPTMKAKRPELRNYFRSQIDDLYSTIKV
UniProt P01023, whole entry, looked up: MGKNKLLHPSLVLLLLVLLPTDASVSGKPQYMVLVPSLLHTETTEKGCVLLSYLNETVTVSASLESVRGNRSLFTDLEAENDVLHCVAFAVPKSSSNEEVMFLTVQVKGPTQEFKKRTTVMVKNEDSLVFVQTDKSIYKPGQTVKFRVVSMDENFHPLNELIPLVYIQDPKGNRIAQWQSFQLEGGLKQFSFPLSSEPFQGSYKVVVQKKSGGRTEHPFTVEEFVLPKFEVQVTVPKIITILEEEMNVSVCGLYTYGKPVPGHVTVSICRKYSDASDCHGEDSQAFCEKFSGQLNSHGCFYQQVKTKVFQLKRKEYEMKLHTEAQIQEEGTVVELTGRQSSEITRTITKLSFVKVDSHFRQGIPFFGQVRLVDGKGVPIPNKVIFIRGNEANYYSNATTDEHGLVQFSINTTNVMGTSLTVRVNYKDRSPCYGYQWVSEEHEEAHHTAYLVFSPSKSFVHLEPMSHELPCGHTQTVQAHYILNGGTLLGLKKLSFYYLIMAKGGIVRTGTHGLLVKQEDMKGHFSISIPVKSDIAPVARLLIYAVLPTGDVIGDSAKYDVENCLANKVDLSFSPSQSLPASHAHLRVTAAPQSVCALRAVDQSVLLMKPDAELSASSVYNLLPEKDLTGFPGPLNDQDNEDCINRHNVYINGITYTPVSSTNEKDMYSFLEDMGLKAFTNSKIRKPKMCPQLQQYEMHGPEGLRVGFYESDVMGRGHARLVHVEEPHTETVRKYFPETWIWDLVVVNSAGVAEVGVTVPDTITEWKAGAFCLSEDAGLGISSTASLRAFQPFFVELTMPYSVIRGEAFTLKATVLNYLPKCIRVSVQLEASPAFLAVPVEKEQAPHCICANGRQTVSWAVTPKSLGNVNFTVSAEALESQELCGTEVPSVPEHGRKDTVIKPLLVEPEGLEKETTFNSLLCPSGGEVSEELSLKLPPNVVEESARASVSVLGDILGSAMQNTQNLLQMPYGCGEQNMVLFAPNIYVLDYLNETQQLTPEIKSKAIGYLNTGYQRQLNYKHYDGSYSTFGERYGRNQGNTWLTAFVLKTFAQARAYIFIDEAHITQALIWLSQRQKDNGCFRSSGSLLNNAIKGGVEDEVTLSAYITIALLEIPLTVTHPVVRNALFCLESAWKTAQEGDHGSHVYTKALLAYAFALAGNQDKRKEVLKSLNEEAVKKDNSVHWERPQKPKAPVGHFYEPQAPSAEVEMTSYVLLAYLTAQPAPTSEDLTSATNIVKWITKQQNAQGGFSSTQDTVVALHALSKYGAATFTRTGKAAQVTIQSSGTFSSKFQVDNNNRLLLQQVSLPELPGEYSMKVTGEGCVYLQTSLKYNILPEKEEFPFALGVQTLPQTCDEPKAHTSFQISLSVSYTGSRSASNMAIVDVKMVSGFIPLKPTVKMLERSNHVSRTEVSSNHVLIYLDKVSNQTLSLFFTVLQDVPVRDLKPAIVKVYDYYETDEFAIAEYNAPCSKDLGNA
UniProt Q96IU4: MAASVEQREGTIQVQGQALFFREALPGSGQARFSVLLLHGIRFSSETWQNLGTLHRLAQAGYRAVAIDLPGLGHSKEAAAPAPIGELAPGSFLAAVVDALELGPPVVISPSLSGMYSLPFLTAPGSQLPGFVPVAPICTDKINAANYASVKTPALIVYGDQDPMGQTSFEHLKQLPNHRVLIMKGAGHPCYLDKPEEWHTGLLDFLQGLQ
UniProt Q9BWD1: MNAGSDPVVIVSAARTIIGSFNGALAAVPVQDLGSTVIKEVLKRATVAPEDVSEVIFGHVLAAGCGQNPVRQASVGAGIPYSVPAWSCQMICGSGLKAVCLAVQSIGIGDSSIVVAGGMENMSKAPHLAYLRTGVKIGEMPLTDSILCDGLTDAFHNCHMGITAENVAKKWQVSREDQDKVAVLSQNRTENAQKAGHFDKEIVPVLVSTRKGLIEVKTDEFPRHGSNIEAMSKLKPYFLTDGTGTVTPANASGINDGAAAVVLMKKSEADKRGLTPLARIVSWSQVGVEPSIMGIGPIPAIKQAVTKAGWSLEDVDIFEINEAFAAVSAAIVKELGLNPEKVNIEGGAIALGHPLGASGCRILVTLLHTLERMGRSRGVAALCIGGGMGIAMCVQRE
UniProt Q9NRK6: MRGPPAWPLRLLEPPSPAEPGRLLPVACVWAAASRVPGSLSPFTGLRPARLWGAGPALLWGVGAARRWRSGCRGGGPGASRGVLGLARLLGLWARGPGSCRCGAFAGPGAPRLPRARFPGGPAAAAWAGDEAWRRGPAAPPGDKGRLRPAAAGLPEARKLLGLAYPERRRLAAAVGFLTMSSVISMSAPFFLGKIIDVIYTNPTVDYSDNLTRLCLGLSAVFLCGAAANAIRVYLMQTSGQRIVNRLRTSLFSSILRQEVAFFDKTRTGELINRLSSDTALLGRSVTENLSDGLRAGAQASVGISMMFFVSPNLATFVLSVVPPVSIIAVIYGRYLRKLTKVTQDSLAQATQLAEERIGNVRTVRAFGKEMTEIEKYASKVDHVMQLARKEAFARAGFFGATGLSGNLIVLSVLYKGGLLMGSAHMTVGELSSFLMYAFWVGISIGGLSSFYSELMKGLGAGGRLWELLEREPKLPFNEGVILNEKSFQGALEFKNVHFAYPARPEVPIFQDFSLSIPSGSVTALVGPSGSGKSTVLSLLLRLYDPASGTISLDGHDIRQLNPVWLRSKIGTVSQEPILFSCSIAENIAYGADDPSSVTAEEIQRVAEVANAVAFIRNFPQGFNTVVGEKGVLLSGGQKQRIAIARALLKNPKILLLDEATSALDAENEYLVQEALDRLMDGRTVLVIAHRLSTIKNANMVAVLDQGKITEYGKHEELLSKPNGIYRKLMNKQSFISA
UniProt Q96EY9: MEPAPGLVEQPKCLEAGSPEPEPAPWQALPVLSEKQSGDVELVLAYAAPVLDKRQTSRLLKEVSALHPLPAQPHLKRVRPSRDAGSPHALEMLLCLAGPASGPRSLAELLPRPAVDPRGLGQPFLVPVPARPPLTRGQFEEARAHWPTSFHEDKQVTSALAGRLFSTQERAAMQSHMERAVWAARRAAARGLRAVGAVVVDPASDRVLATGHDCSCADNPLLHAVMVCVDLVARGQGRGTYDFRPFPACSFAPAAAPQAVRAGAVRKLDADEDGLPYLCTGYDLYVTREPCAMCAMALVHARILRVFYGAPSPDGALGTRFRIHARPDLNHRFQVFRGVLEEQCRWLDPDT

Key:
Assay in all cases: log2 fold change, soluble protein after heating vs DMSO (PISA); higher = thermal stabilisation; K562 cells, 10 uM, 30 min; active = over 0.2 and 3.5 SD of the protein, either way, in both replicates (recomputed)
erlotinib = compound: C#Cc1cccc(Nc2ncnc3cc(OCCOC)c(OCCOC)cc23)c1 [erlotinib]
How it was run: (§1)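 Aliquots of K562 cells (2×10^6 cells/mL) treated with 10 μM compound for 30 min were heated for 3 min over 48°C-58°C. After pooling and extraction in PBS with 0.5% NP-40 at 4°C, soluble protein from a 21,000xg, 90 min spin was quantified by TMTpro 16plex LC-MS/MS with channel sums equalised. Thermal stability is expressed against control samples, from duplicates, as a log2 fold change.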

[1] = compound: C/C(=N\NC(=O)C1=CC(=CC=C1)S(=O)(=O)N2CCOCC2)/C3=C(C=CC(=C3)Cl)O
How it was run: as §1

[2] = compound: C1=CC(=C(C=C1Cl)C2=NC3=NC=CN=C3C(=N2)NC4=CC=NC=C4)F
How it was run: as §1

[3] = compound: C1=CC(=CC=C1C2=NC3=C(N2)C=C(C=C3)C(=O)N)OC4=CC=C(C=C4)Cl
How it was run: as §1

[4] = compound: C1=CC2=C(C=CC(=C2)/C=C\3/C(=O)NC(=NCC4=CC=CS4)S3)N=C1
How it was run: as §1

[5] = compound: C1=CC2=NC=CN=C2C=C1/C=C/3\C(=O)NC(=O)S3
How it was run: as §1

[6] = compound: C1=CC=C(C=C1)C2=NC(=C(N2)C3=CC=NC=C3)C4=CC(=C(C=C4)Cl)O
How it was run: as §1

[7] = compound: C1=CC=C2C(=C1)C3=NNC4=CC=CC(=C43)C2=O
How it was run: as §1

[8] = compound: C1CCN(C1)C(=O)NC2=CC=CC(=C2)NC3=NC=C(C(=N3)NCCC4=CN=CN4)Br
How it was run: as §1

[9] = compound: C1CN(CCC1(CC2=CC=C(C=C2)Cl)N)C3=NC=NC4=C3C=CN4
How it was run: as §1

IRAK-1-4 Inhibitor I = compound: C1COCCN1CCN2C3=CC=CC=C3N=C2NC(=O)C4=CC(=CC=C4)[N+](=O)[O-] [IRAK-1-4 Inhibitor I]
How it was run: as §1

ibrutinib = compound: C=CC(=O)N1CCC[C@@H](n2nc(-c3ccc(Oc4ccccc4)cc3)c3c(N)ncnc32)C1 [ibrutinib]
How it was run: as §1

[10] = compound: CC(=O)c1cnc2ccc(-c3cc(Cl)c(O)c(Cl)c3)nc2c1N[C@H]1CC[C@H](CN(C)C)CC1
How it was run: as §1

ralimetinib = compound: CC(C)(C)Cn1c(N)nc2ccc(-c3[nH]c(C(C)(C)C)nc3-c3ccc(F)cc3)nc21 [ralimetinib]
How it was run: as §1

[11] = compound: CC(C)(O)CC(=O)NCCn1ccc2ncnc(Nc3ccc(Oc4cccc(C(F)(F)F)c4)c(Cl)c3)c21
How it was run: as §1

[12] = compound: CC(C)C1=C2N=C(C=C(N2N=C1)NCC3=CC=CC=C3)NCCCCCCN
How it was run: as §1

[13] = compound: CC(C)C[C@@H](C=O)NC(=O)[C@H](CC(C)C)NC(=O)[C@H](CC(C)C)NC(=O)OCc1ccccc1
How it was run: as §1

pinometostat = compound: CC(C)N(C[C@H]1O[C@@H](n2cnc3c(N)ncnc32)[C@H](O)[C@@H]1O)[C@H]1C[C@@H](CCc2nc3cc(C(C)(C)C)ccc3[nH]2)C1 [pinometostat]
How it was run: as §1

[14] = compound: CC1=C(C(CC(=O)N1)C2=CC=C(C=C2)C(F)(F)F)C(=O)NC3=C(C=C4C(=C3)C=NN4)F
How it was run: as §1

[15] = compound: CC1=C(C2=C(C=C1)C(=O)C3=CC=CC=C3N2CCCN)C
How it was run: as §1

Row | Target | log2 fold change (erlotinib) | log2 fold change [1] | log2 fold change [2] | log2 fold change [3] | log2 fold change [4] | log2 fold change [5] | log2 fold change [6] | log2 fold change [7] | log2 fold change [8] | log2 fold change [9] | log2 fold change (IRAK-1-4 Inhibitor I) | log2 fold change (ibrutinib) | log2 fold change [10] | log2 fold change (ralimetinib) | log2 fold change [11] | log2 fold change [12] | log2 fold change [13] | log2 fold change (pinometostat) | log2 fold change [14] | log2 fold change [15]
1 | ACOT8 (UniProt O14734) | inactive: 0.033 | inactive: 0.006 | inactive: 0.075 | inactive: 0.026 | inactive: 0.061 | inactive: 0.033 | inactive: -0.014 | inactive: -0.031 | inactive: -0.001 | inactive: 0.08 | inactive: -0.004 | inactive: 0.039 | inactive: -0.011 | inactive: -0.05 | inactive: -0.104 | inactive: 0.023 | inactive: 0.005 | inactive: -0.05 | inactive: -0.017 | inactive: 0.007
2 | ACLY (UniProt P53396) | inactive: -0.006 | inactive: 0.024 | inactive: 0.083 | inactive: -0.02 | inactive: 0 | inactive: -0.147 | inactive: 0.031 | inactive: -0.008 | inactive: 0.017 | inactive: 0.018 | inactive: 0.024 | inactive: 0.016 | inactive: -0.017 | inactive: -0.025 | inactive: -0.003 | inactive: -0.01 | inactive: -0.018 | inactive: -0.024 | inactive: -0.006 | inactive: -0.028
3 | ACSL1 (UniProt P33121) | inactive: -0.015 | inactive: 0.067 | inactive: 0.017 | inactive: 0.03 | inactive: 0.005 | inactive: 0.018 | inactive: 0.057 | inactive: 0.016 | inactive: -0.021 | inactive: 0.002 | inactive: -0.004 | inactive: 0.017 | inactive: -0.037 | inactive: -0.018 | inactive: 0.01 | active: -0.243 | inactive: -0.057 | inactive: 0.008 | – | inactive: 0.03
4 | A2M (UniProt P01023) | inactive: -0.304 | inactive: -0.134 | inactive: 0.065 | inactive: 0.176 | inactive: 0.076 | inactive: -0.074 | inactive: 0.052 | inactive: -0.054 | inactive: 0.179 | inactive: 0.245 | inactive: 0.044 | inactive: 0.215 | inactive: 0.125 | inactive: -0.057 | inactive: 0.202 | inactive: 0.155 | inactive: 0.059 | inactive: -0.078 | inactive: 0.113 | inactive: -0.229
5 | ABHD14B (UniProt Q96IU4) | inactive: -0.036 | inactive: 0.094 | inactive: 0.043 | inactive: -0.007 | inactive: 0.039 | inactive: 0.007 | inactive: 0.077 | inactive: -0.006 | inactive: -0.025 | inactive: 0.06 | inactive: 0.027 | inactive: 0.012 | inactive: 0.016 | inactive: -0.084 | inactive: -0.05 | inactive: -0.002 | inactive: -0.102 | inactive: -0.041 | inactive: -0.015 | inactive: 0.066
6 | ACAT2 (UniProt Q9BWD1) | inactive: 0.019 | inactive: -0.002 | inactive: 0.018 | inactive: -0.007 | inactive: -0.032 | inactive: -0.041 | inactive: 0.041 | inactive: 0.014 | inactive: 0.024 | inactive: 0.048 | inactive: 0.031 | inactive: 0.02 | inactive: 0 | inactive: 0.062 | inactive: 0.035 | inactive: 0.101 | inactive: 0.068 | inactive: -0.061 | inactive: 0.036 | inactive: 0.04
7 | ABCB10 (UniProt Q9NRK6) | inactive: 0.012 | inactive: 0.002 | inactive: 0.061 | inactive: -0.019 | inactive: 0.017 | inactive: 0.02 | inactive: 0.009 | inactive: 0.002 | inactive: 0.011 | inactive: 0.033 | inactive: 0.022 | inactive: -0.018 | inactive: -0.002 | inactive: -0.037 | inactive: 0.007 | inactive: 0.011 | inactive: -0.006 | inactive: -0.054 | inactive: 0.003 | inactive: 0.023
8 | ADAT3 (UniProt Q96EY9) | inactive: -0.001 | inactive: 0.026 | inactive: -0.008 | inactive: -0.04 | inactive: 0.027 | inactive: 0.002 | inactive: -0.019 | inactive: -0.007 | inactive: 0.005 | inactive: 0.054 | inactive: 0.082 | inactive: 0.027 | inactive: -0.028 | inactive: -0.037 | inactive: 0.019 | inactive: 0.016 | inactive: 0.04 | inactive: 0.015 | inactive: -0.066 | inactive: 0.037
